Results deposited as PubChem BioAssay AID1224830 (NIAID, 2016)
Here is a random part of about 18,000 deposited reagents. Over the whole deposit, about 2,900 (16%) got an active call. 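Calls are made per well; low scores hint the gene aids the LPS response, high scores that it dampens it.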 Entries without a mark were called inactive. Repeated entries: four replicate wells of each siRNA pool.

Purpose: 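Genes whose knock-down alters the TNF-alpha reporter response to LPS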 (primary screen)
Cells: human THP-1 monocytic leukaemia cells, TNF dual-luciferase reporter clone, PMA-differentiated to macrophage-like cells
Reagent: siRNA pool against human genes, 50 nM
Duration: LPS for 4 h, given about 3 days after siRNA transfection
Conditions: bacterial LPS (TLR4 ligand), 10 ng/ml
Read-out: 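Ratio of firefly to renilla light, scaled to the plate median and expressed as a robust z-score per replicate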
Scale: TNF reporter robust z-score: higher = stronger TNF reporter response to LPS
Hit rule: 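a well is active when its z-score exceeds 2.8 or falls below -1.5; control wells carry no call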

| gene | TNF reporter robust z-score |
| --- | --- |
| MICB (MHC class I polypeptide-related sequence B) | 1.38 |
| MICB (MHC class I polypeptide-related sequence B) | 2.62 |
| MICB (MHC class I polypeptide-related sequence B) | 1.42 |
| MICB (MHC class I polypeptide-related sequence B) | 2.63 |
| GINS4 (GINS complex subunit 4) | 0.56 |
| GINS4 (GINS complex subunit 4) | 0.1 |
| GINS4 (GINS complex subunit 4) | -0.06 |
| GINS4 (GINS complex subunit 4) | 1.33 |
| DENR (density regulated re-initiation and release factor) | -0.8 |
| DENR (density regulated re-initiation and release factor) | -0.66 |
| DENR (density regulated re-initiation and release factor) | -1.11 |
| DENR (density regulated re-initiation and release factor) | -0.95 |
| G6PD (glucose-6-phosphate dehydrogenase) | -1.28 |
| G6PD (glucose-6-phosphate dehydrogenase) | 1.38 |
| G6PD (glucose-6-phosphate dehydrogenase) | -0.04 |
| G6PD (glucose-6-phosphate dehydrogenase) | 1.36 |
| OR4D6 (olfactory receptor family 4 subfamily D member 6) | 1.1 |
| OR4D6 (olfactory receptor family 4 subfamily D member 6) | 0.45 |
| OR4D6 (olfactory receptor family 4 subfamily D member 6) | -0.12 |
| OR4D6 (olfactory receptor family 4 subfamily D member 6) | 1.24 |
| MANEA (mannosidase endo-alpha) | -0.07 |
| MANEA (mannosidase endo-alpha) | 0.15 |
| MANEA (mannosidase endo-alpha) | 0.11 |
| MANEA (mannosidase endo-alpha) | 0.72 |
| LIN28B (lin-28 RNA binding posttranscriptional regulator B) | -1.01 |
| LIN28B (lin-28 RNA binding posttranscriptional regulator B) | -0.18 |
| LIN28B (lin-28 RNA binding posttranscriptional regulator B) | -0.75 |
| LIN28B (lin-28 RNA binding posttranscriptional regulator B) | -0.49 |
| NFKB1 (nuclear factor kappa B subunit 1) | 4.18 (active) |
| NFKB1 (nuclear factor kappa B subunit 1) | -0.46 |
| NFKB1 (nuclear factor kappa B subunit 1) | -0.49 |
| NFKB1 (nuclear factor kappa B subunit 1) | -0.8 |

Next part; the last 3 above are carried over.
| gene | TNF reporter robust z-score |
| --- | --- |
| NFKB1 (nuclear factor kappa B subunit 1) | -0.46 |
| NFKB1 (nuclear factor kappa B subunit 1) | -0.49 |
| NFKB1 (nuclear factor kappa B subunit 1) | -0.8 |
| OR10H4 (olfactory receptor family 10 subfamily H member 4) | -0.58 |
| OR10H4 (olfactory receptor family 10 subfamily H member 4) | -0.69 |
| OR10H4 (olfactory receptor family 10 subfamily H member 4) | -1.77 (active) |
| OR10H4 (olfactory receptor family 10 subfamily H member 4) | -0.5 |
| SCNN1G (sodium channel epithelial 1 subunit gamma) | -1.05 |
| SCNN1G (sodium channel epithelial 1 subunit gamma) | -1.14 |
| SCNN1G (sodium channel epithelial 1 subunit gamma) | -0.43 |
| SCNN1G (sodium channel epithelial 1 subunit gamma) | -0.82 |
| SRP68 (signal recognition particle 68) | -0.78 |
| SRP68 (signal recognition particle 68) | -0.67 |
| SRP68 (signal recognition particle 68) | -1.44 |
| SRP68 (signal recognition particle 68) | -1.04 |
| CALML3 (calmodulin like 3) | 2.14 |
| CALML3 (calmodulin like 3) | 0.58 |
| CALML3 (calmodulin like 3) | 1.53 |
| CALML3 (calmodulin like 3) | 0.69 |
